One assay has as its target Flag-tagged SMAD3 (UniProt P84022). Briefly: co-IP; Flag-tagged BCL6, SMAD3 or NFIB overexpressed individually in C42B-ABi cells; immunoprecipitation with a Flag antibody; BCL6, SMAD3 and NFIB detected by Western blot; IgG as negative control. A general note: A western blot detects proteins with antibodies after separation by electrophoresis.
The target of another assay is Flag-tagged NFIB (UniProt O00712). Described as above.

Protein sequences, listed by entry. Tags and fused reporters are not part of them.
UniProt P84022: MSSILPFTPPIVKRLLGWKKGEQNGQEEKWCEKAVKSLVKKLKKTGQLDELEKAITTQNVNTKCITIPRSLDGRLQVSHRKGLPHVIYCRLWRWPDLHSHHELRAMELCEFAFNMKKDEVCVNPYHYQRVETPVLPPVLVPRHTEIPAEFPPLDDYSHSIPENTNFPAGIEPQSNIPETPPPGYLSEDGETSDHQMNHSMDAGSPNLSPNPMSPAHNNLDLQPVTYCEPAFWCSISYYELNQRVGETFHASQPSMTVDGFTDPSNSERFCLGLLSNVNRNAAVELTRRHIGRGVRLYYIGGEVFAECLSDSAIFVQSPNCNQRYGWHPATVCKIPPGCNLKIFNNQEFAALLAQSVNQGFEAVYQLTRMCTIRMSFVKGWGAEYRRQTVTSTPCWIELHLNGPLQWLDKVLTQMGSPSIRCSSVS

These are yes or no findings as the source states them, for the method shown. In cells and extracts the contact can be indirect. Some entries that bind do so weakly or less than the wild type.

NFIB (from UniProt O00712 1-420): the binding result with Flag-tagged SMAD3 is on record as “binds”. With SMAD3 (from UniProt P84022 1-425), the binding result with Flag-tagged NFIB is reported as “binds”.

These data come from PMC12376675.
